Some entries share one result that the patent states for a list of compounds.
Legend:
[1] = Non-specific binding, uptake transporter format (cell-free plates); assay type: in vitro ADME; conditions: without BSA pre-incubation, both matrices
[2] = Non-specific binding, efflux transporter format (cell-free Transwell); assay type: in vitro ADME; conditions: all three replicates

For tauroursodeoxycholic acid [TUDCA], the Recovery [1] was “greater than 90%” and the Recovery [2] was “greater than 80%”.
